Measured values published in PMC11724075, “Small-molecule-induced ERBB4 activation to treat heart failure” (Nature Communications, 2025).

Legend:
mouse model of MI [1] = experiment: Mouse model of MI (LAD ligation), echocardiography; set-up: left-ventricular end-diastolic volume / left-ventricular end-systolic volume: unit not given here
Experimental: Twelve-week-old female and male Balb/cJ (Charles River, 000651) mice were randomized into either the ctrl or MI group. Mice in the MI group underwent surgical ligation of the LAD, while mice in the ctrl group underwent a sham procedure (n = 8 female mice, n = 10 male mice). Briefly, all mice received an injection of 0.1 mg/kg buprenorphine (Produlab Pharma) before induction of anesthesia with 8% sevoflurane (Zoetis). Anesthesia was maintained with 4.5% sevoflurane and mice were intubated and ventilated. An incision of 15 mm was made on the left side of the thorax and the thoracic cavity was opened at the third intercostal space using blunt forceps. The LAD was permanently ligated with a 8/0 polypropylene monofilament sutures (Ethicon, F1894) after which the thoracic cavity and skin were closed with 6/0 polypropylene monofilament sutures (Ethicon, F1841). and 5/0 polyamide 6 sutures (Ethilon, F2412H), respectively. Mice received another dose of 0.1 mg/kg buprenorphine 6–8 h after the initial dose. Two days after surgery, cardiac ultrasound was performed to exclude mice without successful MI (i.e. displaying hypokinesia in ≥2 out of 5 segments). Mice with successful MI were randomized into 2 groups: an MI/EF-1 group (n = 9 female mice, n = 10 male mice) and an MI/Veh group (n = 8 female mice, n = 12 male mice). Seven days after MI surgery, the mice were equipped with osmotic mini-pumps containing either EF-1 (2 mg/kg/day) or Veh, as described above. Cardiac ultrasound was performed weekly. After 4 weeks of treatment, mice were euthanized, and hearts were collected.
Echocardiography was performed using the Vevo F2-LAZRX (FUJIFILM VisualSonics) and UHF57x probe. Mice were anesthetized with 1.5% isoflurane (Alvira, BE-V512222). Parasternal long-axis B-mode images and M-mode images were obtained and analyzed using VevoLAB software (FUJIFILM VisualSonics, Version 5.7.1). For the AngII experiments, measurements were obtained through analysis of the short-axis M-mode. For the MI experiments, measurements were obtained through analysis of the parasternal long-axis B-mode, of which the area and end-volume of the left ventricular cavity in diastole and systole were determined by tracing the endocardial border. Acquisitions, measurements and analyses were performed blinded.
Supplementary Table 2. Echocardiographic parameters. […]
Echocardiographic parameters obtained through left ventricular trace analysis of the parasternal long-axis obtained in B-mode in female wild-type mice that underwent a sham or MI operation: mice with […]
the MI were treated with Veh or EF-1 (n=8 female mice in Ctrl and MI/Veh group and n=9 female mice […]
in MI/EF-1 group). (g) Echocardiographic parameters obtained through left ventricular trace analysis of the parasternal long-axis obtained in B-mode in male wild-type mice that underwent a sham or MI […]
operation: mice with the MI were treated with Veh or EF-1 (n=5 male mice in Ctrl and MI/EF-1 group […]
and n=6 male mice in MI/Veh group for T0 and T3; n=10 male mice in Ctrl and MI/EF-1 group and n=12 […]
male mice in MI/Veh group for T2 and T4). Echocardiographic parameters were measured weekly (indicated by ‘T’). All data are presented as mean (value of individual mice) ± SD, two-tailed unpaired […]
1 groups. Source data are provided as a Source Data file. AngII, angiotensin II; ANOVA, analysis of variance; Ctrl, control; DOX, doxorubicin; EF, ejection fraction; ERBB4, erythroblastic leukemia viral oncogene homolog 4; FS, fractional shortening; IVSd, interventricular septum thickness in diastole; IVSs, interventricular septum thickness in systole; LVIDd, left ventricular internal diameter in diastole; LVIDs, left ventricular internal diameter in systole; LVPWd, left ventricular posterior wall thickness in diastole; LVPWs, left ventricular posterior wall thickness in systole; MI, myocardial infarction; NA, non-activating pharmacophore-containing compound; SD, standard variation; Veh, vehicle.

mouse model of MI [2] = experiment: Mouse model of MI, histology: CSA, capillaries, interstitial fibrosis, scar size; details: MI experiment, female mice, MI/EF-1
Experimental: Twelve-week-old female and male Balb/cJ (Charles River, 000651) mice were randomized into either the ctrl or MI group. Mice in the MI group underwent surgical ligation of the LAD, while mice in the ctrl group underwent a sham procedure (n = 8 female mice, n = 10 male mice). Briefly, all mice received an injection of 0.1 mg/kg buprenorphine (Produlab Pharma) before induction of anesthesia with 8% sevoflurane (Zoetis). Anesthesia was maintained with 4.5% sevoflurane and mice were intubated and ventilated. An incision of 15 mm was made on the left side of the thorax and the thoracic cavity was opened at the third intercostal space using blunt forceps. […]
Hearts were fixed in 4% PFA, paraffin-embedded, and cut into 5-µm sections. Images were acquired with an Olympus BX43 microscope (Olympus Stream Motion Software) or a CELENA® S Digital Imaging System and analyzed with ImageJ 2.14.0 software. […] Cardiac total fibrosis was expressed as the ratio of positively stained fibrotic area (blue) to the total area and perivascular fibrosis as the ratio of fibrotic area to vascular lumen area. Scar size was determined by measuring the scar length over the total heart area. […] Quantification was performed by a person blinded to the treatment protocol.

[3] = male mice, MI/EF-1, 2 weeks after MI
[4] = male mice, MI/EF-1, 3 weeks after MI
[5] = male mice, MI/EF-1, 4 weeks after MI

O=C(NC1CC1)C(Sc1nc2ccccc2c(=O)n1C1CCCC1)c1ccccc1 (stereo not drawn) [EF-1]
left-ventricular end-systolic volume (mouse model of MI [1]; female mice, MI/EF-1, 0 weeks after MI): 27.1502, 25.5965, 41.583, 26.8532, 31.6618, 26.4045, 33.6199 | left-ventricular end-diastolic volume (mouse model of MI [1]; female mice, MI/EF-1, 3 weeks after MI): 104.279, 57.1046, 67.7258, 110.958, 104.249, 85.2445, 83.2871 | left-ventricular end-diastolic volume (mouse model of MI [1]; [3]): 152.907, 157.952, 103.809, 120.971, 84.3743, 82.7782, 163.93, 127.013 | left-ventricular end-systolic volume (mouse model of MI [1]; [3]): 120.606 and 144.154 | ejection fraction (mouse model of MI [1]; [4]): 48.9747, 12.2218, 13.8127, 22.8853, 12.1516 | left-ventricular end-systolic volume (mouse model of MI [1]; [4]): 128.254, 144.109, 66.4446, 116.876 | left-ventricular end-diastolic volume (mouse model of MI [1]; [5]): 152.102, 174.774, 98.4532, 129.892 | left-ventricular end-systolic volume (mouse model of MI [1]; [5]): 130.023, 142.752, 120.978 | cardiomyocyte cross-sectional area (mouse model of MI [2]): 408.291, 410.876, 364.329, 394.198, 468.719, 389.529, 486.597, 400.61 µm²

A number of entries come with more than one value. This is not the full list of results. An entry can have further records. Values given together differ for a reason that is not stated; they may come from other doses, times, organisms or constructs than stated.
